# No constants are given. Whether binding was seen depends on the method and setting. Some entries that bind do so weakly or less than the wild type.
# T1: human ASCT2 (system ASC amino acid transporter 2, SLC1A5) (human) (UniProt Q15758)
# T1 sequence (looked up): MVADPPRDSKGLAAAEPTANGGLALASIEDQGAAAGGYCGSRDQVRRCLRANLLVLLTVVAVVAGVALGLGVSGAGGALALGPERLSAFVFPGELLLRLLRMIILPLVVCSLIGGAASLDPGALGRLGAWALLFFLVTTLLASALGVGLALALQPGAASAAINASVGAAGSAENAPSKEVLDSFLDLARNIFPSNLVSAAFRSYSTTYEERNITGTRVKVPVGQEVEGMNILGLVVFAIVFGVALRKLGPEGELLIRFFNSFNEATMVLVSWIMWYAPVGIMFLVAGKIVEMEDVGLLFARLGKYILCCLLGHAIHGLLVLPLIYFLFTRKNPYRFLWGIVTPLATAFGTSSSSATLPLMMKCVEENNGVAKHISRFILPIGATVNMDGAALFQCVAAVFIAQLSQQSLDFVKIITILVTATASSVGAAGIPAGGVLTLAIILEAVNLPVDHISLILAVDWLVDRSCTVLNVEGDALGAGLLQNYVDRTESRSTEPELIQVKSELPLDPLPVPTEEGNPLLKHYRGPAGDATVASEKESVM
# T2: cynomolgus monkey ASCT2 (cynomolgus monkey (Macaca fascicularis)) (UniProt G7PXZ3)
# T2 sequence: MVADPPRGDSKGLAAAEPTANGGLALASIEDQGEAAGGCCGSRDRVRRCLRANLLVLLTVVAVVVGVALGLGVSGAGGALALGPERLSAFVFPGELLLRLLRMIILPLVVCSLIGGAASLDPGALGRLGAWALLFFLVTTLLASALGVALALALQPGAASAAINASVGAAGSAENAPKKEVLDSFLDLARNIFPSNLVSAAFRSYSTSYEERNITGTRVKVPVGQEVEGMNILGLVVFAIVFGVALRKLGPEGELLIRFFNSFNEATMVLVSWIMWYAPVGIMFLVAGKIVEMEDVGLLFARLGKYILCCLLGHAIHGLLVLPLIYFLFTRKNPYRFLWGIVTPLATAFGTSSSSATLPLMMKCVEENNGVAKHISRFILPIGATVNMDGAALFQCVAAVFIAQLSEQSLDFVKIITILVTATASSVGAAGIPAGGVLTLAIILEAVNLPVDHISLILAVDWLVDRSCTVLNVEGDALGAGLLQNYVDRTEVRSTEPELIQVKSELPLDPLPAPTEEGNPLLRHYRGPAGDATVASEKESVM
# What was measured:
# [1] = target: T1, human ASCT2 (system ASC amino acid transporter 2, SLC1A5) (human); assay: flow cytometry on WiDr cells with ASCT2 shRNA or non-target shRNA
# [2] = target: T2, cynomolgus monkey ASCT2 (cynomolgus monkey (Macaca fascicularis)); assay: flow cytometry on CHO cells expressing CyASCT2
# [3] = target: T1, human ASCT2 (system ASC amino acid transporter 2, SLC1A5) (human); assay: flow cytometry on SKMEL-2 cells with shRNA knockdown
# [4] = target: T1, human ASCT2 (system ASC amino acid transporter 2, SLC1A5) (human); assay: flow cytometry on WiDr cells and CHO cells expressing HuASCT2
Binder,binding [1],binding [2],binding [3],binding [4]
"anti-ASCT2 antibody 17c10 (original, non-germlined, parental) (antibody, V domains shown, also called 17c10 parental antibody; ASCT2 mAb 17c10) VH: QVQLQQWGAGLLKPSETLSLTCAVYGGSFSGYYWSWIRQPPGKGLEWIGEIHHSGGANYNPSLKSRVTISVDTSKNQFSLKLTSVTAADTAVYYCARGQGKNWHYDYFDYWGQGTLVTVSS VL: DIQMTQSPSTLSTSVGDRVTLTCRASQSIRSWLAWYQQNPGKAPKLLIYKASILKIGVPSRFSGSGSGTDFTLTITSLQPDDFATYYCQQYYSYSRTFGQGTKVEIK",binds,binds,binds,binds
"germlined 17c10 antibody (antibody, V domains shown, also called 17c10 germlined antibody) VH: QVQLQQWGAGLLKPSETLSLTCAVYGGSFSGYYWSWIRQPPGKGLEWIGEIHHSGGANYNPSLKSRVTISVDTSKNQFSLKLSSVTAADTAVYYCARGQGKNWHYDYFDYWGQGTLVTVSS VL: DIQMTQSPSTLSASVGDRVTITCRASQSIRSWLAWYQQKPGKAPKLLIYKASILKIGVPSRFSGSGSGTEFTLTISSLQPDDFATYYCQQYYSYSRTFGQGTKVEIK",–,binds,–,–
"anti-ASCT2 antibody 1e8 (original) (antibody, V domains shown, also called ASCT2 mAb 1e8) VH: QVQLQQWGAGLLKPSETLSLTCAVYGGSFSGYYWSWIPQPPGKGVEWIGEINHSGSTNYNPSLKSRVTISSDTSKNQFSLKLTSVTAADTAVYYCARGQGKNWNYDYFDYWGQGTLVTVSS VL: DIQMTQSPSTLSASVGDRVTLTCRASQSIRSWLAWYQQKPGKAPKLLIYKASSLKSGVPSRFSGSGSGTDFTLTISSLQPDDFATYYCQQYYSFSRTFGQGTKVEIK",binds,–,–,–
